For at least one compound, name, drawing or mass did not settle the structure.
How the values were obtained:
A549 cells = assay: Proliferation of A549 nonsmall cell lung cancer cells (overexpress COX-2); assay type: cell-based, human; conditions: A549 overexpress COX-2
From the text: The antitumor efficacy of specifically formulated fish oil 30 diets was studied in human lung cancer A549 xenograft (over expression of COX-2) and H1299 xenograft (lack of COX-2 expression).
FIG. 17 illustrates the relative effect of WholeMega and two commercial fish oil products to inhibit proliferation of human A549 nonsmall cell lung cancer cells (top figure) and human H1299 nonsmall cell lung cancer cells (bottom figure). A549 cells overexpress COX-2, as many cancer cells are known to do. […] The A549 cells over-express COX-2 which normally results in an over-expression/production of PGE2. When provided with an alternate substrate, however, such as fish oil EPA, the resulting product is PGE3 rather than PGE2. […] Clearly, at least one structural feature unique to the Wholemega composition contributes an additional anti-tumor effect. One possibility is that that other oils in Wholemega (omega-5, omega-7 and omega-9 oils), that are not present in the other two fish oils, contribute to an additional inhibitory effect on the growth of the cancer cells. Another possibility would be the relative fractions of certain oils to one another. Yet another possibility would be the herbal oil component, e.g. SCE rosemary and SCE oregano) contribute an added inhibitory effect on the growth of the cancer cells. […]

H1299 cells = assay: Proliferation of H1299 nonsmall cell lung cancer cells (lack COX-2 expression); assay type: cell-based, human; conditions: H1299 do not overexpress COX-2
[1] = tested on: PGE2 and PGE3 formation in A549 cells; conditions: cells exposed to EPA (Yang, P. et al. J. Lipid Res. 2004); cited from earlier work
[2] = tested on: PGE2 and PGE3 production in H1299 cells; conditions: cells exposed to EPA (Yang, P. et al. J. Lipid Res. 2004); cited from earlier work

## CC/C=C\C/C=C\C/C=C\C/C=C\C/C=C\CCCC(=O)O [EPA, eicosapentaenoic acid]
A549 cells
  effect on proliferation of A549 cells: inhibits the proliferation
H1299 cells
  effect on proliferation of H1299 cells: not
[1]
  COX-2 mediated synthesis of PGE2 in A549 cells: inhibits
  production of PGE3 in A549 cells: gives rise to production
[2]
  COX-2 mediated synthesis of PGE2 in H1299 cells: not
  production of PGE3 in H1299 cells: to a lesser extent
